## Primary screen of a compound library

Sequences of proteins named here, by UniProt entry; tags and fusion partners are left off.
UniProt P9WPC5, whole entry: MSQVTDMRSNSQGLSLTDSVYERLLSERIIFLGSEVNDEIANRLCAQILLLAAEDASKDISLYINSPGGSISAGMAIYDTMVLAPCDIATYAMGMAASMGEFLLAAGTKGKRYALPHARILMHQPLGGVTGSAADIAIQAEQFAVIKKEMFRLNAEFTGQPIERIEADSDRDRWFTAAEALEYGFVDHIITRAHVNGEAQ
UniProt P9WPC3, whole entry partner: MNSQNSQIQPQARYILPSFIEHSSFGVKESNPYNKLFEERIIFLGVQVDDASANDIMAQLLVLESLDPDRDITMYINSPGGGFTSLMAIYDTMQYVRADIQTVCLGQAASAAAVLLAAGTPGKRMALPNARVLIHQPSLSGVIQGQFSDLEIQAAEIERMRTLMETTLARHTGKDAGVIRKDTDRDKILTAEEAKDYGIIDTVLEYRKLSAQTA

The values are deposited in ChEMBL (CHEMBL3988442, “University of Dundee, Small-Polar-MMV Screening Library” (2021)).

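ClpP1P2, Mycobacterium tuberculosis (UniProt P9WPC5 and UniProt P9WPC3). Protease assay of ClpP1P2, read by the AMC dye that it sets free. Compounds at 50 µM. Higher reads as stronger inhibition, judged from the few compounds that gave an IC50. Most other retested compounds had strongly negative values. About 69,000 compounds were tested under these conditions; 0.015% (about 10) showed 50% or more at least once.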

Values are the deposited “Percent Effect”, in %.
The record does not define 0% and 100%; most values in the screen are far below 50% and negative numbers occur (in some assays of this library far below -100).
Compounds were drawn at random from those tested, without regard to their results.

| SMILES | effect |
|---|---|
| `Cc1nc2cc(O)nn2c(C)c1CCC(=O)N(C)CCC(C)C` | 14.5% |
| `CN(C)C[C@H]1OC[C@@H]2CCN(S(=O)(=O)c3ccccc3)C[C@@H]21` | 0.9001% |
| `CS(=O)(=O)NCC1CCCN(C(=O)c2ccc3c(c2)CCC3)C1` (stereo unspecified) | 7.036% |
| `Cc1cc(C)c(CNC(=O)N2CCOC(c3ccccc3)C2)c(=O)[nH]1` (stereo unspecified) | 7.076% |
| `c1cc(-c2nn3c(CN4CCOCC4)nnc3s2)ccn1` | 18.58% |
| `Cc1ccc2nc(C(=O)N3CC(c4cccnc4)C3)cn2c1` | 1.908% |
| `Cc1nn(C)c2nc(C(C)C)cc(C(=O)Nc3n[nH]c(C4CC4)n3)c12` | -8.068% |
| `O=C(N1CCCO1)[C@@]12CCO[C@@H]1CCN(C1CCCCC1)C2` | 2.165% |
| `CCc1nnc(CN(C)C(=O)CN2CC(c3ccccc3)CC2=O)o1` (stereo unspecified) | -6.329% |
| `O=S(=O)(c1ccc(Cl)cc1)N1CCc2nc(C3CCNCC3)ncc2C1` | 8.962% |
| `COc1ccc(C(=O)NCCc2nnc3ccccn23)c(OC)c1` | 4.51% |
| `C[C@@H]1CN(C(=O)NC2CC2)C[C@]12CCN(c1ccsc1)C2=O` | 4.591% |
| `Cn1ccnc1C(=O)N1CCC2(CCN2c2ncccn2)C1` (stereo unspecified) | -2.092% |
| `O=C1CC(NS(=O)(=O)N2CCOCC2)CN1Cc1ccc(F)cc1` (stereo unspecified) | -7.974% |
| `O=C(Nc1cccc(CNCc2cccnc2)c1)C1CCCC1` | -29.99% |
| `Cc1nc(C(C)C)sc1C(=O)N(C)Cc1nc(-c2ccccn2)no1` | 2.072% |
| `O=C(NCc1ccccc1Cl)c1[nH]nc2c1CS(=O)(=O)CC2` | -6.132% |
| `c1ccc(Oc2ncccc2CNCc2ccccn2)cc1` | -6.363% |
| `CC(C)=CCC1(C(=O)O)CCCN(c2ccnc(C)n2)C1` (stereo unspecified) | -9.428% |
| `O=C(Cc1ccccc1)N1CCOC(c2nc(-c3ncccn3)no2)C1` (stereo unspecified) | 11.94% |
| `CC(C)c1nc(CN(C)C(=O)c2ccc3c(c2)OCO3)cs1` | -6.583% |
| `Cc1cnc(-c2nc(-c3cccc(CN4CCOCC4)c3)no2)cn1` | -1.661% |
| `O=C(CC1COCCN1)N1CCC(N2CCc3ccccc3C2)CC1` (stereo unspecified) | 26.18% |
| `CC(=O)N1CCC(n2nccc2-c2cnc(N(C)CCO)nc2)CC1` | 0.2525% |
| `COCC1COCCC12CCN(CCc1ccccc1)CC2` (stereo unspecified) | 2.259% |
| `CN1CCCN(C(=O)c2csc3nc(-c4ccc(Cl)cc4)cn23)CC1` | -15.38% |
| `COCCC(=O)N1CCCC2(CCC(=O)N(CCc3c[nH]cn3)C2)C1` (stereo unspecified) | -6.08% |
| `Cc1cc(CS(=O)(=O)NC2CCCCC2)on1` | 4.449% |
| `CC(C)NC(=O)CC1COC2(CCN(Cc3cccnc3)CC2)C1` (stereo unspecified) | -2.643% |
| `O=C([C@H]1CN(Cc2cccnc2)C[C@H]2OCC[C@@H]12)N1CCCO1` | -12.08% |
| `CC(NCc1cccn1C)c1noc(-c2ccc(Cl)cc2)n1` (stereo unspecified) | 0.03446% |
| `COc1ccc(-n2ccc(C(=O)NCCN3CCCCCC3)n2)cc1` | 0.8985% |
| `CC(NC(=O)c1ccc(Cl)cc1)c1nnc(SCC(=O)O)n1C` (stereo unspecified) | 15.73% |
| `N[C@H]1CN(C(=O)c2cnc3cc(Cl)ccc3c2O)C[C@@H]1C1CC1` | 1.431% |
| `Cc1cc(C)n(CC2CN(Cc3cccc(C#N)c3)CCO2)n1` (stereo unspecified) | -18.37% |
| `Cc1ccc(C(=O)N2CCSCC2)cc1NC(C)C` | -13% |
| `O=C(Nc1nc2c(s1)CCC2)c1cccnc1N1CCOCC1` | -7.027% |
| `Cc1csc(N2CCCN(C(=O)c3ccoc3C)CC2)n1` | -18.09% |
| `Fc1cnc(N2CC[C@@H]3CN(Cc4ccncc4)CCO[C@@H]3C2)nc1` | 16.34% |
| `Fc1ccc(CN2CCC(F)(F)C3(CCN(c4cnccn4)C3)C2)cc1` (stereo unspecified) | 0.5166% |
| `Cc1nc(CN2C[C@@H](NC(=O)C3CCC3)[C@H]3COC[C@H]32)cs1` | 7.838% |
| `Cc1cccc(-c2nc(CN3CC(n4nc(C)cc4C)C3)no2)c1` | -23.98% |
| `CCOc1cc(CNCC2CN(C3CC3)CCO2)ccc1OC` (stereo unspecified) | -1.755% |
| `N#Cc1ccccc1OCCN1CCCC(c2noc(C3CC3)n2)C1` (stereo unspecified) | -18.68% |
| `CN1CC(=O)N(c2ccsc2)CC12CCN(C(=O)N1CCCC1)C2` (stereo unspecified) | -3.437% |
| `OC1(CNc2ccc(Br)cn2)CCOCC1` | -1.026% |
| `CC(C)CN1CCCC(c2nc(O)c3cc(F)ccc3n2)C1` (stereo unspecified) | -5.541% |
| `O=C(NC1CCCC1)O[C@H]1COCCN(c2nc3ccccc3o2)C1` | -6.701% |
| `CN1CCN(CCCOc2ccccc2CN2C[C@H]3CC[C@H]2C3)CC1` | -4.278% |
| `NCc1cn(CC2CCCN(C(=O)CC3=CCCCC3)C2)nn1` (stereo unspecified) | -9.68% |
| `O=C(c1ccc(Br)o1)N1CCCCC1Cn1cccn1` (stereo unspecified) | -1.916% |
| `CC(C)CS(=O)(=O)N1C[C@H]2C[C@H](C(=O)NCc3ccccc3)[C@@H](C1)O2` | -5.525% |
| `C[C@H](NC(=O)Cc1csc(-c2cccc(Cl)c2)n1)C(=O)O` | -0.6885% |
| `Cc1cc(=O)n(CCNS(=O)(=O)c2cccc(C(F)(F)F)c2)cn1` | -22.02% |
| `CC1(C)CCN1C(=O)c1cc(F)cc2[nH]cnc12` | -0.6532% |
| `CN1CCOCC12CCN(C(=O)C1CCC1)CC2` | 4.693% |
| `COCC1(C(=O)N2CCC(c3nccn3CC3CC3)CC2)CCC1` | 3.048% |
| `O=C(CCN1CCCC1c1cccc2c1OCCO2)N1CCOCC1` (stereo unspecified) | -6.164% |
| `Cc1ccccc1OCC(=O)NCC(c1ccc(N(C)C)cc1)N(C)C` (stereo unspecified) | 23.62% |
| `COc1ccc(Cl)cc1CS(=O)(=O)Cc1noc(C)n1` | -2.018% |
| `CC(C)C(=O)N1CCc2nc(C(=O)Nc3cccnc3)sc2CC1` | 3.968% |
| `Cc1cc(C(=O)N2CC(=O)Nc3cnccc32)c(Cl)cc1F` | -21.25% |
| `COc1ccc(NC(=O)Nc2cnc(N3CCN(C)CC3)nc2)cc1Cl` | 1.51% |
| `O=c1c2ccccc2nc2n1C(CSc1ccc(Cl)cc1Cl)CN2` (stereo unspecified) | 23.81% |
| `CC(C(=O)N1CCCN(Cc2ccc(C#N)cc2)CC1)n1cncn1` (stereo unspecified) | 1.612% |
| `O=S(=O)(NC[C@H]1C[C@@H]2CCN1C[C@@H]2CN1CCCC1)c1ccc(Cl)cc1` | -0.8783% |
| `O=C([C@@H]1CCCO1)N1CCC(Cn2cc(-c3ccsc3)nn2)CC1` | -6.974% |
| `CCCn1cnnc1CNC(=O)C1COc2ccc(OC)cc2C1` (stereo unspecified) | -12.22% |
| `COc1ccc(C(O)CNC(=O)Nc2cc(C)nn2C)cc1` (stereo unspecified) | 17.85% |
| `COc1ccccc1CN(C)c1nccc(-c2cn(C)nc2C)n1` | -26.57% |
| `CC1CCN(c2ccc(NC(=O)CCn3cccn3)cc2)CC1` | -8.71% |
| `COc1ccc(CNC[C@H]2COCc3nc4cccnc4n32)cn1` | -4.867% |
| `Cc1cnc(N(C)Cc2cnc3ccccc3n2)nc1N(C)C` | -0.1634% |
| `CC[C@@H](C)[C@@H](N)C(=O)Nc1cccc(-c2cnc(N)nc2)c1` | -6.476% |
| `CC(C)N(C)CC(=O)N1CCCC(n2ccnc2)C1` (stereo unspecified) | 5.934% |
| `O=C(CN(CC(O)c1ccc(F)cc1)C1CC1)NC(C1CC1)C1CC1` (stereo unspecified) | -7.85% |
| `CC(NC1CCN(CCS(C)(=O)=O)CC1)c1cnn(C(C)C)c1` (stereo unspecified) | 12.94% |
| `CN(CC(=O)Nc1cc(CC2CCCCC2)n[nH]1)S(C)(=O)=O` | -4.547% |
| `CC(=O)Nc1ccc2nc(-c3nccn3C[C@@H]3CCCO3)ccc2c1` | -7.982% |
| `O=C([C@@H]1CC[C@@H]2[C@@H](CCN2c2ccncn2)O1)N1CCCCO1` | 6.148% |
| `CCN(CC)C1CCN(C(=O)NCc2nncn2CC)CC1` | 10.74% |

Once more, the final 7:

CC(C)N(C)CC(=O)N1CCCC(n2ccnc2)C1 (stereo unspecified) read 5.934%.
O=C(CN(CC(O)c1ccc(F)cc1)C1CC1)NC(C1CC1)C1CC1 (stereo unspecified) read -7.85%.
CC(NC1CCN(CCS(C)(=O)=O)CC1)c1cnn(C(C)C)c1 (stereo unspecified) read 12.94%.
CN(CC(=O)Nc1cc(CC2CCCCC2)n[nH]1)S(C)(=O)=O read -4.547%.
CC(=O)Nc1ccc2nc(-c3nccn3C[C@@H]3CCCO3)ccc2c1 read -7.982%.
O=C([C@@H]1CC[C@@H]2[C@@H](CCN2c2ccncn2)O1)N1CCCCO1 read 6.148%.
CCN(CC)C1CCN(C(=O)NCc2nncn2CC)CC1 read 10.74%.